Reference: doi:10.1101/2024.02.16.580631 (bioRxiv, 2024)
Results are given in words; binding and its absence hold for the method and conditions named.

Key:
[1] = biological target: Adenosine deaminase-like protein 1 (ADALP1), human (human) (UniProt Q6DHV7); experiment: SEC
[2] = biological target: Adenosine deaminase-like protein 1 (ADALP1), human (human) (UniProt Q6DHV7); experiment: crystal structure

binding [1]: no binding
binding [2]: no binding
B1: Adenosine deaminase-like protein 1 (ADALP1), human (enzyme, UniProt Q6DHV7 1-355)
chain: MIEAEEQQPCKTDFYSELPKVELHAHLNGSISSHTMKKLIAQKPDLKIHDQMTVIDKGKKRTLEECFQMFQTIHQLTSSPEDILMVTKDVIKEFADDGVKYLELRSTPRRENATGMTKKTYVESILEGIKQSKQENLDIDVRYLIAVDRRGGPLVAKETVKLAEEFFLSTEGTVLGLDLSGDPTVGQAKDFLEPLLEAKKAGLKLALHLSEIPNQKKETQILLDLLPDRIGHGTFLNSGEGGSLDLVDFVRQHRIPLELCLTSNVKSQTVPSYDQHHFGFWYSIAHPSVICTDDKGVFATHLSQEYQLAAETFNLTQSQVWDLSYESINYIFASDSTRSELRKKWNHLKPRVLHI
